Assay results from article doi:10.1101/2022.04.14.488335.
These are yes or no findings as the source states them, for the method shown. Where a sequence is shown, tags or fusion partners need not be part of it.

Target: T1, MBP-SYCP1N (amino-acids 1-362) (UniProt Q15431)
T1 sequence: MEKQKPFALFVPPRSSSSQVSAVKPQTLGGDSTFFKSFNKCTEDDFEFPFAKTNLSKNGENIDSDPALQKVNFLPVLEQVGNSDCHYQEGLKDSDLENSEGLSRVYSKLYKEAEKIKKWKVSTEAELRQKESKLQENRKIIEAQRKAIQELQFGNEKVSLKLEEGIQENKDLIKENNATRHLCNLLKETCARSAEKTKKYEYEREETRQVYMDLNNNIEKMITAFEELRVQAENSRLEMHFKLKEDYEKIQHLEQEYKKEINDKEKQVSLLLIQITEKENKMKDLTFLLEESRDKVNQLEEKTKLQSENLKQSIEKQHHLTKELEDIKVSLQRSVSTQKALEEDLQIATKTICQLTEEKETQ
Assay: condition: three-fold molar excess with respect to MBP-SYCP1N

binding: no binding
Substance: SYCE1-SIX6OS1 complex
